Out of some 340,000 compounds screened, about 170 (0.05%) were called active. Inconclusive means that the source gave no clear call. Such entries were picked first, then a sample of the others. Calls follow the shape of the dose curve; as a rule, active = well fitted inhibition curve with a large enough effect in the signal ratio, with a control signal flat (not every such curve was filed as active); inconclusive = small, poorly fitted or top-dose-only effect, or effect the other way, or a change in a side signal; inactive = flat fitted curve, though single readings scatter; the % refers to the signal ratio. Where the call is inconclusive, the potency comes from a doubtful curve fit.
Assay: qHTS Assay to Find Inhibitors of Chronic Active B-Cell Receptor Signaling;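 as to activity change, negative = inhibition: plate controls were basal doxycycline-induced cells for no effect and cells given 10 µM MG132 for full effect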
Settings: ABC-DLBCL IkBa-CBG/CBR reporter, luminescence ratio (green luciferase fused to IkBa over red control in TMD8 lymphoma cells), 4 h; activity change, negative = inhibition: at 46.1 µM (top of the series)
How it was run: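 Concentration-response series (up to 46 uM) were applied to TMD8 dual-reporter cells for 4 h at 37C with doxycycline. Green/red ratio, after filter-overlap correction, defined %Activity; red signal alone was normalised to basal cells and zero luminescence.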
Potency is read from the fitted curve at half-maximal effect.

Question: For `O=C1OCCC1Sc1nnc(-c2ccc(Cl)cc2Cl)o1` (stereo not drawn), which Potency is on record?
Answer: inconclusive: 35.5 µM [falling, single point]

Question: Which Potency does the source give for `O=C(Nc1ccc2[nH]ncc2c1)c1ccccc1Cl` here?
Answer: inconclusive: 14.1 µM [falling, partial curve]

Question: With `CCCS(=O)(=O)C/C(N)=N/OC(=O)c1ccc(Cl)cc1` as the compound, how does the activity change, negative = inhibition read?
Answer: inconclusive: 10.8%

Question: Which “activity change, negative = inhibition” value does the source give for `O=C1Cc2cc(S(=O)(=O)Nc3cccc([N+](=O)[O-])c3)cc3c2N1CCC3` here?
Answer: inactive: 19.3%

Question: For `Cc1nn(C)c(Oc2cccc(Cl)c2)c1C#N`, which “activity change, negative = inhibition” value is on record?
Answer: inactive: -1.36%

Question: For `O=C(O)/C=C/C(=O)NNC(=O)c1cccc(Br)c1`, which Potency is on record?
Answer: inconclusive: 23.1 µM [falling, partial curve]

Question: For `C[C@H](Nc1ncnc2sc3c(c12)CCC3)C(=O)O`, which activity change, negative = inhibition is on record?
Answer: inconclusive: 1%

Question: With `CC(C)[C@H](NS(=O)(=O)c1ccc(Cl)cc1)C(=O)OCC(=O)NCCN1C(=O)CSC1=O` as the compound, how does the “activity change, negative = inhibition” value read?
Answer: inactive: 0.557%

Question: For `Cc1c(/C=N\NC(=O)c2ccc(F)cc2)cnn1C`, which activity change, negative = inhibition is on record?
Answer: inconclusive: -14.2%

Question: For `O=C1Nc2ccccc2C(O)(C(=O)NCc2ccco2)N1c1ccc(Cl)c(Cl)c1` (stereo not drawn), which Potency is on record?
Answer: inconclusive: 11.2 µM [falling, partial curve]

Question: Which activity change, negative = inhibition does the source give for `Clc1ccc(-c2cc(COc3ccccc3)on2)cc1` here?
Answer: inconclusive: 1.09%

Question: With `Cc1nc2ccccc2c(=O)n1CCc1ccccc1` as the compound, how does the “activity change, negative = inhibition” value read?
Answer: inactive: 10.8%

Question: With `CC1CCN(C2=C(NS(=O)(=O)c3ccc(Cl)cc3)C(=O)c3ccccc3C2=O)CC1` as the compound, how does the activity change, negative = inhibition read?
Answer: inconclusive: 10.5%

Question: Which Potency does the source give for `CCn1c(=O)c2cc(C(=O)Nc3cc(C)on3)sc2c2ccccc21` here?
Answer: inconclusive: 1.16 µM [falling, full curve, poor fit]

Question: For `CCOC(=O)[C@@H]1[C@H]2COc3ccc(Br)cc3[C@@H]2N2C(=O)N(c3cccc(Cl)c3)C(=O)[C@@]12C`, which “activity change, negative = inhibition” value is on record?
Answer: inactive: 4.92%

Question: For `CCOC(=O)C1CCN(c2ncnc3c2cnn3-c2ccccc2)CC1`, which activity change, negative = inhibition is on record?
Answer: inconclusive: -14.9%

Question: Which activity change, negative = inhibition does the source give for `Cc1cccn2c(=O)c3cc(C(=O)NC4CCCCC4)c(=N)n(CCN4CCOCC4)c3nc12` here?
Answer: inconclusive: 9.58%

Question: For `O=C(Nc1nc(-c2cccc3ccccc23)cs1)c1cnccn1`, which activity change, negative = inhibition is on record?
Answer: inconclusive: -0.36%

Question: For `Cc1ccc(C)c(S(=O)(=O)/N=C(/Nc2ccccc2)c2ccccc2)c1`, which Potency is on record?
Answer: inconclusive: 32.6 µM [falling, partial curve, poor fit]

Question: For `C=CCSc1nnc(-c2ccc(Cl)cc2Cl)o1`, which activity change, negative = inhibition is on record?
Answer: inconclusive: 0.715%

Question: Which activity change, negative = inhibition does the source give for `COc1cccc2[nH]c3c(=O)n(CCN(C)C)cnc3c12` here?
Answer: inconclusive: -9.32%

Question: Which “activity change, negative = inhibition” value does the source give for `Cc1cccc(C)c1NC(=O)CNC(=O)CCC(=O)N1CCOCC1` here?
Answer: inactive: -0.0848%

Question: Which Potency does the source give for `COc1ccccc1NC1SC(=O)N(c2ccccc2)C1=O` (stereo not drawn) here?
Answer: inconclusive: 12.6 µM [falling, partial curve]

Question: With `CCOC(=O)c1c(C)[nH]c(C(=O)COC(=O)c2ccc([N+](=O)[O-])o2)c1C` as the compound, how does the activity change, negative = inhibition read?
Answer: inconclusive: 0.942%

Question: Which “activity change, negative = inhibition” value does the source give for `O=C1C=C(c2cc(Cl)cc(Cl)c2)C[C@@H](c2ccc(F)cc2)C1` here?
Answer: inactive: 12.2%

Question: With `Cc1ccsc1/C=N\NC(=O)c1ccc2c(c1)OCO2` as the compound, how does the Potency read?
Answer: inconclusive: 35.5 µM [rising, partial curve]

Question: With `COc1ccc(C(C)(C)C)cc1NC(=O)c1ccoc1C` as the compound, how does the activity change, negative = inhibition read?
Answer: inconclusive: 1.87%

Question: For `N#Cc1ccc(OCC(O)CN2CCN(CC(O)COc3ccc(C#N)cc3)CC2)cc1` (stereo not drawn), which “activity change, negative = inhibition” value is on record?
Answer: inactive: -0.107%

Question: For `CCc1cc2c(=O)c(-c3nc4ccccc4n3C)c(C)oc2c(CN(CC)CC)c1O`, which activity change, negative = inhibition is on record?
Answer: inconclusive: 19.8%

Question: For `N#Cc1ccccc1NC(=S)NC(=O)c1cccs1`, which Potency is on record?
Answer: inconclusive: 20 µM [falling, single point]

Question: With `Nc1c(C(=O)O)cnc2c(-c3ccc(Cl)cc3)cnn12` as the compound, how does the activity change, negative = inhibition read?
Answer: inconclusive: -1.26%

Question: For `COc1ccccc1-c1noc(-c2ccccc2)n1`, which Potency is on record?
Answer: inconclusive: 25.9 µM [falling, single point]

Question: For `COc1cc(C2C(=O)N(C3CCCCCC3)CC(=O)N2CCC2=CCCCC2)ccc1OC(C)C` (stereo not drawn), which activity change, negative = inhibition is on record?
Answer: inconclusive: -1.62%

Question: For `COC(=O)c1ccccc1NC(=O)c1ccccc1OC`, which “activity change, negative = inhibition” value is on record?
Answer: inactive: -6.78%

Question: Which activity change, negative = inhibition does the source give for `COCCCNc1nc2nonc2nc1N(C)CC1CCCN1C` (stereo not drawn) here?
Answer: inconclusive: 16.9%

Question: For `CNCCCC1c2ccccc2C=Cc2ccccc21`, which activity change, negative = inhibition is on record?
Answer: inconclusive: -18%

Question: With `O=C(CNc1ccc(C(F)(F)F)cc1[N+](=O)[O-])OCC(=O)c1ccccc1` as the compound, how does the Potency read?
Answer: inconclusive: 1.84 µM [falling, partial curve, poor fit]

Question: For `C=CCN(C(=O)c1cc(C)cc(C)c1)C1(C(=O)Nc2ccccc2)CCN(C(C)C)CC1`, which activity change, negative = inhibition is on record?
Answer: inconclusive: -11.4%

From PubChem BioAssay AID493014 (National Center for Advancing Translational Sciences (NCATS), 2011)
